PubChem BioAssay AID652259, Drosophila RNAi Screening Center, 2013
Assay: 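Genome-wide hunt for genes that control Wingless pathway activity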 (primary screen). Cell system: Drosophila clone 8 imaginal disc epithelial cells. Knock-down reagent: long dsRNA against Drosophila genes. Challenge: pathway stimulated by co-transfected Wingless expression plasmid. Detection: 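Dual luciferase reads per well after Wingless plasmid stimulation: reporter firefly light and Renilla control light; activity is firefly divided by Renilla, a ratio not deposited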. Scale: firefly reporter light: higher = more Wg reporter light, before normalisation; Renilla control light: higher = more transfected or surviving cells. Call rule: 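a knock-down is a candidate when at least two out of four statistical tests show it departing from its plate mean; one test alone signals a weak candidate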. Meaning of the calls: active = candidate regulator (raises or lowers reporter); inactive = not a candidate.
The deposit covers about 22,000 reagents; shown is an unselected part of those that have a named target and a result. In the full data, 233 (1.1%) are marked active. 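Light values are raw, unnormalised plate reads; the ratio scores behind the reporter calls were not deposited.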 The record does not give: the amount of reagent, the time to read-out, the dose of the treatment.

CG14877 [DRSC15001]
- firefly reporter light, replicate 1: 13958
- Renilla control light, replicate 1: 2806
- activity call: inactive

GlcAT-I [DRSC17307]
- firefly reporter light, replicate 1: 2738
- Renilla control light, replicate 1: 1113
- activity call: inactive

CG15170 [DRSC02471]
- firefly reporter light, replicate 1: 3036
- firefly reporter light, replicate 2: 6106
- Renilla control light, replicate 1: 518
- Renilla control light, replicate 2: 2187
- activity call: inactive

sqz [DRSC16980]
- firefly reporter light, replicate 1: 32221
- Renilla control light, replicate 1: 4192
- activity call: inactive

CG42360 [DRSC04224]
- firefly reporter light, replicate 1: 1796
- firefly reporter light, replicate 2: 7958
- Renilla control light, replicate 1: 547
- Renilla control light, replicate 2: 2554
- activity call: inactive

beat-Ib [DRSC03490]
- firefly reporter light, replicate 1: 2125
- firefly reporter light, replicate 2: 6487
- Renilla control light, replicate 1: 816
- Renilla control light, replicate 2: 2643
- activity call: inactive

CG13667 [DRSC10028]
- firefly reporter light, replicate 1: 3504
- Renilla control light, replicate 1: 1716
- activity call: inactive

Yip1d1 [DRSC02166]
- firefly reporter light, replicate 1: 3120
- firefly reporter light, replicate 2: 6442
- Renilla control light, replicate 1: 1568
- Renilla control light, replicate 2: 4778
- activity call: inactive

lncRNA:CR34046 [DRSC14075]
- firefly reporter light, replicate 1: 4077
- Renilla control light, replicate 1: 1302
- activity call: inactive

Sec23 [DRSC12387]
- firefly reporter light, replicate 1: 6356
- Renilla control light, replicate 1: 2848
- activity call: inactive

CG42729 [DRSC10236]
- firefly reporter light, replicate 1: 5232
- Renilla control light, replicate 1: 2725
- activity call: inactive

oxt [DRSC08522]
- firefly reporter light, replicate 1: 13803
- Renilla control light, replicate 1: 4288
- activity call: inactive

CG13775 [DRSC02279]
- firefly reporter light, replicate 1: 2692
- firefly reporter light, replicate 2: 6155
- Renilla control light, replicate 1: 907
- Renilla control light, replicate 2: 947
- activity call: inactive

Rpn8 [DRSC04624]
- firefly reporter light, replicate 1: 2499
- firefly reporter light, replicate 2: 5260
- Renilla control light, replicate 1: 432
- Renilla control light, replicate 2: 1427
- activity call: inactive

CG14947 [DRSC02429]
- firefly reporter light, replicate 1: 3457
- firefly reporter light, replicate 2: 5408
- Renilla control light, replicate 1: 1069
- Renilla control light, replicate 2: 2193
- activity call: inactive

CG7789 [DRSC16312]
- firefly reporter light, replicate 1: 4842
- firefly reporter light, replicate 2: 9348
- Renilla control light, replicate 1: 1591
- Renilla control light, replicate 2: 2593
- activity call: inactive

CG31816 [DRSC01547]
- firefly reporter light, replicate 1: 19415
- Renilla control light, replicate 1: 10020
- activity call: inactive

CG34001 [DRSC09042]
- firefly reporter light, replicate 1: 1718
- Renilla control light, replicate 1: 752
- activity call: inactive

CARPA [DRSC17905]
- firefly reporter light, replicate 1: 23379
- Renilla control light, replicate 1: 13077
- activity call: inactive

CARPA [DRSC21633]
- firefly reporter light, replicate 1: 8.16e5
- firefly reporter light, replicate 2: 7.50e5
- Renilla control light, replicate 1: 3.49e5
- Renilla control light, replicate 2: 3.18e5
- activity call: inactive

CG9503 [DRSC20186]
- firefly reporter light, replicate 1: 29776
- Renilla control light, replicate 1: 14945
- activity call: inactive

CG9503 [DRSC21766]
- firefly reporter light, replicate 1: 3.96e5
- firefly reporter light, replicate 2: 4.23e5
- Renilla control light, replicate 1: 1.61e5
- Renilla control light, replicate 2: 1.72e5
- activity call: inactive

CG2150 [DRSC15420]
- firefly reporter light, replicate 1: 27106
- Renilla control light, replicate 1: 21676
- activity call: inactive

Sodh1 [DRSC12605]
- firefly reporter light, replicate 1: 7269
- Renilla control light, replicate 1: 2685
- activity call: inactive

conv [DRSC07213]
- reporter change call, replicate 1: Wg reporter activity lowered
- firefly reporter light, replicate 1: 4688
- Renilla control light, replicate 1: 954
- activity call: inactive

Part of the list above, reduced to “Renilla control light, replicate 1”.
CARPA [DRSC17905]: 13077
CARPA [DRSC21633]: 3.49e5
CG9503 [DRSC20186]: 14945
